# Structures can show the parent of a compound that is named as a salt. Some of the results follow. Single values are uncertain, as repeats are few or missing.
# Legend:
# Test in all cases: reduction in cell viability relative to untreated/vehicle; higher = more growth inhibition
# Settings in all cases: 200 nM; 72 h
# [1] = tested on: M229P (parental melanoma line)
# [2] = tested on: M229R (matched melanoma line resistant to BRAF inhibitors)
# [3] = tested on: M238P (parental melanoma line)
# [4] = tested on: M238R (matched melanoma line resistant to BRAF inhibitors)
# [5] = tested on: M249P (parental melanoma line)
# [6] = tested on: M249R (matched melanoma line resistant to BRAF inhibitors)
# [7] = tested on: UACC62P (parental melanoma line)
# [8] = tested on: UACC62R (matched melanoma line resistant to BRAF inhibitors)
Compound,reduction in cell viability [1] [%],reduction in cell viability [2] [%],reduction in cell viability [3] [%],reduction in cell viability [4] [%],reduction in cell viability [5] [%],reduction in cell viability [6] [%],reduction in cell viability [7] [%],reduction in cell viability [8] [%]
O=c1cc(-c2ccccc2)oc2cc(O)c(O)c(O)c12 [Baicalein],< 0,< 0,< 0,< 0,< 0,< 0,0.03,< 0
CNC[C@H](O)c1cccc(O)c1 [Phenylephrine hydrochloride],< 0,< 0,< 0,< 0,< 0,12.5,< 0,< 0
CCC(=O)O[C@]1(C(=O)SCF)[C@H](C)C[C@H]2[C@@H]3C[C@H](F)C4=CC(=O)C=C[C@]4(C)[C@@]3(F)[C@@H](O)C[C@@]21C [Fluticasone propionate],< 0,< 0,< 0,< 0,6.11,< 0,< 0,< 0
CC[C@@]1(O)C(=O)OCc2c1cc1n(c2=O)Cc2cc3c(CN(C)C)c(O)ccc3nc2-1 [Topotecan HCl],< 0,9.83,69,23.3,23.6,45.2,63.8,78.5
c1cc(N[C@@H]2CCNC2)nc(-c2cnc3ccc(-c4cn[nH]c4)cn23)c1,< 0,< 0,2.31,< 0,< 0,< 0,6.57,0.55
C[C@H](NC(=O)Cc1cc(F)cc(F)c1)C(=O)N[C@@H]1C(=O)N(C)c2ccccc2-c2ccccc21,< 0,< 0,< 0,< 0,< 0,< 0,< 0,< 0
Cc1ccc(NC(=O)c2cccc(N(C)C)c2)cc1NC(=O)c1ccc(O)cc1,0.31,< 0,< 0,< 0,< 0,17.6,1.66,< 0
CN[C@@H]1[C@@H](O)[C@@H](O[C@@H]2[C@@H](O)[C@H](O[C@H]3O[C@H](CN)[C@@H](O)[C@H](O)[C@H]3O)[C@@H](N)C[C@H]2NC(=O)[C@@H](O)CN)OC[C@]1(C)O [Isepamicin],< 0,< 0,< 0,< 0,< 0,< 0,< 0,< 0
CCN1CCCC1CNC(=O)c1cc(S(=O)(=O)CC)c(N)cc1OC (stereo not drawn) [Amisulpride],< 0,< 0,< 0,< 0,< 0,< 0,< 0,< 0
CS(=O)(=O)c1cccc(CNc2nc(Nc3ccc4c(c3)CCC(=O)N4)ncc2C(F)(F)F)c1,< 0,< 0,< 0,< 0,< 0,< 0,< 0,< 0
CCc1cc(Nc2nccc(-c3c(-c4ccc(OC)c(C(=O)Nc5c(F)cccc5F)c4)nc4ccccn34)n2)c(OC)cc1N1CCC(N2CCN(S(C)(=O)=O)CC2)CC1,< 0,< 0,< 0,< 0,< 0,< 0,< 0,< 0
COc1ccc(S(=O)(=O)Nc2cccnc2Nc2ccc(O)cc2)cc1,< 0,18.4,50.2,62.8,33,37.7,52.4,87.8
CC1(C)O[C@H]2CC(=O)OC[C@]23[C@H]2CC[C@@]4(C)[C@H](c5ccoc5)OC(=O)[C@H]5O[C@]54[C@]2(C)C(=O)C[C@@H]13 [Limonin],< 0,< 0,< 0,< 0,< 0,1.35,< 0,< 0
COc1ccc(Cn2ccc3ccc(C(=O)NO)cc32)cc1,< 0,< 0,< 0,< 0,< 0,< 0,< 0,< 0
c1ccc2c(CCNc3ccc(Nc4ccncc4)cc3)c[nH]c2c1,< 0,< 0,< 0,< 0,< 0,< 0,5.07,< 0
"Cc1ccc2c(c1)C(=O)C1(O)CCN(c3ccccc3)C1=N2 (single isomer, unassigned; (-)) [(-)-Blebbistatin]",< 0,< 0,< 0,< 0,< 0,< 0,< 0,< 0
CC(C)(C)c1cc(C(C)(C)C)c(NC(=O)c2c[nH]c3ccccc3c2=O)cc1O [Ivacaftor],< 0,< 0,< 0,< 0,< 0,< 0,< 0,< 0
Cc1c(NC(=O)c2ccc(C(C)(C)C)cc2)cccc1-c1cn(C)c(=O)c(Nc2ccc(C(=O)N3CCOCC3)cc2)n1,< 0,< 0,< 0,< 0,< 0,< 0,< 0,< 0

Compound,reduction in cell viability [1] [%],reduction in cell viability [2] [%],reduction in cell viability [3] [%],reduction in cell viability [4] [%],reduction in cell viability [5] [%],reduction in cell viability [6] [%],reduction in cell viability [7] [%],reduction in cell viability [8] [%]
OC[C@H]1O[C@@H](O[C@@H]2[C@@H](CO)OC(O)(CO)[C@H]2O)[C@H](O)[C@@H](O)[C@H]1O (mixture of isomers) [Lactulose],< 0,< 0,< 0,< 0,< 0,< 0,< 0,< 0
C=CC(=O)N1CCC[C@@H](n2nc(-c3ccc(Oc4ccccc4)cc3)c3c(N)ncnc32)C1,< 0,< 0,< 0,< 0,< 0,< 0,7.79,< 0
CNC1CCCN(c2c(F)cc3c(=O)c(C(=O)O)cn(C4CC4)c3c2OC)C1 (stereo not drawn) [Balofloxacin],< 0,< 0,< 0,< 0,< 0,< 0,3.89,< 0
N#CC1(c2cccc(C(=O)Nc3cc(Oc4ccc5nc(NC(=O)C6CC6)sc5n4)ccc3F)c2Cl)CC1 [Takeda-6d],17.9,19.6,26,< 0,34.8,29,55.5,28.3
CCCS(=O)(=O)Nc1ccc(F)c(C(=O)c2c[nH]c3ncc(Cl)cc23)c1F,< 0,< 0,24.1,< 0,7.58,< 0,42.6,< 0
C[S+]([O-])c1ccc(-c2nc(-c3ccc(F)cc3)c(-c3ccncc3)[nH]2)cc1 (stereo not drawn),< 0,< 0,< 0,< 0,< 0,< 0,< 0,< 0
CCS(=O)(=O)N1CC(CC#N)(n2cc(-c3ncnc4[nH]ccc34)cn2)C1 [Baricitinib],< 0,< 0,< 0,< 0,< 0,< 0,< 0,< 0
Nc1cc(C(Cl)=C(Cl)Cl)c(S(N)(=O)=O)cc1S(N)(=O)=O [Clorsulon],4.81,< 0,< 0,< 0,< 0,< 0,< 0,< 0
CC1(C)O[C@@H]2C[C@H]3[C@@H]4CCC5=CC(=O)C=C[C@]5(C)[C@H]4[C@@H](O)C[C@]3(C)[C@]2(C(=O)CO)O1 [Desonide],< 0,< 0,< 0,< 0,< 0,< 0,< 0,< 0
CCOC(=O)[C@H](CCc1ccccc1)N[C@H]1CS[C@H](c2cccs2)CN(CC(=O)O)C1=O [Temocapril hydrochloride],< 0,< 0,< 0,< 0,< 0,< 0,2.11,< 0
C[C@H]1COc2c(N3CCN(C)CC3)c(F)cc3c(=O)c(C(=O)O)cn1c23 [Levofloxacin],< 0,< 0,2.75,< 0,< 0,< 0,5.08,< 0
C/C=C/C[C@@H](C)C(=O)[C@H]1C(=O)N[C@@H](C(C)C)C(=O)N(C)CC(=O)N(C)[C@@H](CC(C)C)C(=O)N[C@@H](C(C)C)C(=O)N(C)[C@@H](CC(C)C)C(=O)N[C@@H](C)C(=O)N[C@H](C)C(=O)N(C)[C@@H](CC(C)C)C(=O)N(C)[C@@H](CC(C)C)C(=O)N(C)[C@@H](C(C)C)C(=O)N1C [Valspodar],< 0,< 0,< 0,< 0,< 0,1.55,< 0,< 0
CCOc1cc(N2CCC(O)CC2)ccc1Nc1ncc2c(n1)N(C)c1ccccc1C(=O)N2C,< 0,< 0,< 0,< 0,< 0,2.16,10.1,< 0
Cc1n[nH]c(C)c1Cc1sc2c(c1C(=O)N1C[C@H](O)CO1)c(=O)n(C)c(=O)n2CC(C)C,3.5,30.5,23.3,< 0,< 0,< 0,20.9,26.1
COC1=C(OC)C(=O)C(C/C=C(\C)CC/C=C(\C)CC/C=C(\C)CC/C=C(\C)CC/C=C(\C)CC/C=C(\C)CC/C=C(\C)CC/C=C(\C)CC/C=C(\C)CCC=C(C)C)=C(C)C1=O [Ubidecarenone],< 0,< 0,< 0,< 0,< 0,< 0,< 0,< 0
NC12CC3CC(CC(C3)C1)C2 [Amantadine hydrochloride],< 0,< 0,< 0,< 0,< 0,10.5,< 0,< 0
CCn1c(-c2nonc2N)nc2c(C#CC(C)(C)O)ncc(OC[C@H]3CCCNC3)c21,4.34,14,13.4,< 0,< 0,23.5,19.7,< 0
CC(C)C[C@@H](C(=O)N[C@H](C(=O)OC1CCCC1)c1ccccc1)[C@H](O)C(=O)NO [Tosedostat],< 0,< 0,< 0,< 0,< 0,< 0,< 0,8.71

# For reference, some entries already given:
Compound,reduction in cell viability [1] [%],reduction in cell viability [2] [%],reduction in cell viability [3] [%],reduction in cell viability [4] [%],reduction in cell viability [5] [%],reduction in cell viability [6] [%],reduction in cell viability [7] [%],reduction in cell viability [8] [%]
CNC1CCCN(c2c(F)cc3c(=O)c(C(=O)O)cn(C4CC4)c3c2OC)C1 (stereo not drawn) [Balofloxacin],< 0,< 0,< 0,< 0,< 0,< 0,3.89,< 0
N#CC1(c2cccc(C(=O)Nc3cc(Oc4ccc5nc(NC(=O)C6CC6)sc5n4)ccc3F)c2Cl)CC1 [Takeda-6d],17.9,19.6,26,< 0,34.8,29,55.5,28.3
CCCS(=O)(=O)Nc1ccc(F)c(C(=O)c2c[nH]c3ncc(Cl)cc23)c1F,< 0,< 0,24.1,< 0,7.58,< 0,42.6,< 0
C[S+]([O-])c1ccc(-c2nc(-c3ccc(F)cc3)c(-c3ccncc3)[nH]2)cc1 (stereo not drawn),< 0,< 0,< 0,< 0,< 0,< 0,< 0,< 0
CCS(=O)(=O)N1CC(CC#N)(n2cc(-c3ncnc4[nH]ccc34)cn2)C1 [Baricitinib],< 0,< 0,< 0,< 0,< 0,< 0,< 0,< 0
Nc1cc(C(Cl)=C(Cl)Cl)c(S(N)(=O)=O)cc1S(N)(=O)=O [Clorsulon],4.81,< 0,< 0,< 0,< 0,< 0,< 0,< 0
CC1(C)O[C@@H]2C[C@H]3[C@@H]4CCC5=CC(=O)C=C[C@]5(C)[C@H]4[C@@H](O)C[C@]3(C)[C@]2(C(=O)CO)O1 [Desonide],< 0,< 0,< 0,< 0,< 0,< 0,< 0,< 0
CCOC(=O)[C@H](CCc1ccccc1)N[C@H]1CS[C@H](c2cccs2)CN(CC(=O)O)C1=O [Temocapril hydrochloride],< 0,< 0,< 0,< 0,< 0,< 0,2.11,< 0

# Source: the supplement of paper PMC9015667
